Assay results taken from publication PMC11445020.
No constants are given. Whether binding was seen depends on the method and setting. In cells and extracts the contact can be indirect. Some binding calls cover weakened binding; strength is not graded here. Tags and fused reporters may be left off the sequences shown.

The chains behind the UniProt entries cited, without tags or fusion partners.
UniProt P63159: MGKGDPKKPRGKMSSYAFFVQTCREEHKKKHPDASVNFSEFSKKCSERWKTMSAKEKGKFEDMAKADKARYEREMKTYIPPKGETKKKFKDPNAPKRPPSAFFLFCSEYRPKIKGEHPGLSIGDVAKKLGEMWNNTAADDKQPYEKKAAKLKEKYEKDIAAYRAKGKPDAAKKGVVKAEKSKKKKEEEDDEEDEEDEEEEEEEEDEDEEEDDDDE

Biological target: High mobility group box 1 (Hmgb1-3flag) (UniProt P63159)
Assay: co-IP; Flag antibody on protein A/G IP beads added to RIPA lysate (with protease inhibitor cocktail) of cells co-transfected with HA-Aqp1 and Hmgb1-3flag plasmids; 4°C overnight; precipitate analysed by Western blot

B1: Aquaporin 1 (HA-Aqp1) (protein, UniProt P29975 1-269)
chain: MASEIKKKLFWRAVVAEFLAMTLFVFISIGSALGFNYPLERNQTLVQDNVKVSLAFGLSIATLAQSVGHISGAHLNPAVTLGLLLSCQISILRAVMYIIAQCVGAIVASAILSGITSSLLENSLGRNDLARGVNSGQGLGIEIIGTLQLVLCVLATTDRRRRDLGGSAPLAIGLSVALGHLLAIDYTGCGINPARSFGSAVLTRNFSNHWIFWVGPFIGSALAVLIYDFILAPRSSDFTDRMKVWTSGQVEEYDLDADDINSRVEMKPK
binding: binds
